In US20250188118A1 (AMGEN INC., priority 2023, published 2025):

Experiment: peptide synthesis
Settings: late stage modification step

## Boc-[His(Trt)][Aib]E(OtBu)G-OH
  step yield: 58%

Square brackets hold non-standard residues; d marks the D form. * marks the point of attachment. His(Trt) = N[C@@H](Cc1cn(C(c2ccccc2)(c2ccccc2)c2ccccc2)cn1)C(=O)O; Boc = CC(C)(C)OC(=O)*; Aib = CC(C)(N)C(=O)O; OtBu = CC(C)(C)O*
